These are yes or no findings as the source states them, for the method shown. In cells and extracts the contact can be indirect. Some entries that bind do so weakly or less than the wild type.
Target: β-catenin (UniProt P35222)
Assay: western blotting of lysate of the cetuximab-resistant LIM1215 cell line R2 (right of FIG. 5); pull-down format not described

The chains behind the UniProt entries cited, without tags or fusion partners. Where a name states a change or a piece, a line headed by the entry shows the natural chain unless it says otherwise. Residues count along the entry.
UniProt P35222, residues 2-781: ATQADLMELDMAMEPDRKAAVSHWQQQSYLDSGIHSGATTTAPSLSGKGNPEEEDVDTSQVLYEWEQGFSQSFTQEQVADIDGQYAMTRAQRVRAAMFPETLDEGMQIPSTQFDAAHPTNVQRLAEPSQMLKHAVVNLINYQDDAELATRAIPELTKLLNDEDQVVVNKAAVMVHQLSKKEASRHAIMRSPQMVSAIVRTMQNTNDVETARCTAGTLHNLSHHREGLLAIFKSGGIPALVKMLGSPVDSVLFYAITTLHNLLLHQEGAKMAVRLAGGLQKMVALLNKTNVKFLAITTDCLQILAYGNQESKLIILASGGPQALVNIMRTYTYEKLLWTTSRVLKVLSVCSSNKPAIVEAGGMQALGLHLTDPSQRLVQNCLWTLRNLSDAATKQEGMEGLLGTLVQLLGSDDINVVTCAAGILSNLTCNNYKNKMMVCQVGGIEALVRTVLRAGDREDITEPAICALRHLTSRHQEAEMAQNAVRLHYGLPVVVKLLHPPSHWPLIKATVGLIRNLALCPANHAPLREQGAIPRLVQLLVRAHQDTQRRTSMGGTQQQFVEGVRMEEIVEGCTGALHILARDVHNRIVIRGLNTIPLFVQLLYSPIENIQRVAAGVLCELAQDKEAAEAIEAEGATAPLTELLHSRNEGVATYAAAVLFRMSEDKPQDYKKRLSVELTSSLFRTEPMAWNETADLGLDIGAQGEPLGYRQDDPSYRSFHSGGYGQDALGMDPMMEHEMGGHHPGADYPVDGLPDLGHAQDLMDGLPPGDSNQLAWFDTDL
UniProt Q04912: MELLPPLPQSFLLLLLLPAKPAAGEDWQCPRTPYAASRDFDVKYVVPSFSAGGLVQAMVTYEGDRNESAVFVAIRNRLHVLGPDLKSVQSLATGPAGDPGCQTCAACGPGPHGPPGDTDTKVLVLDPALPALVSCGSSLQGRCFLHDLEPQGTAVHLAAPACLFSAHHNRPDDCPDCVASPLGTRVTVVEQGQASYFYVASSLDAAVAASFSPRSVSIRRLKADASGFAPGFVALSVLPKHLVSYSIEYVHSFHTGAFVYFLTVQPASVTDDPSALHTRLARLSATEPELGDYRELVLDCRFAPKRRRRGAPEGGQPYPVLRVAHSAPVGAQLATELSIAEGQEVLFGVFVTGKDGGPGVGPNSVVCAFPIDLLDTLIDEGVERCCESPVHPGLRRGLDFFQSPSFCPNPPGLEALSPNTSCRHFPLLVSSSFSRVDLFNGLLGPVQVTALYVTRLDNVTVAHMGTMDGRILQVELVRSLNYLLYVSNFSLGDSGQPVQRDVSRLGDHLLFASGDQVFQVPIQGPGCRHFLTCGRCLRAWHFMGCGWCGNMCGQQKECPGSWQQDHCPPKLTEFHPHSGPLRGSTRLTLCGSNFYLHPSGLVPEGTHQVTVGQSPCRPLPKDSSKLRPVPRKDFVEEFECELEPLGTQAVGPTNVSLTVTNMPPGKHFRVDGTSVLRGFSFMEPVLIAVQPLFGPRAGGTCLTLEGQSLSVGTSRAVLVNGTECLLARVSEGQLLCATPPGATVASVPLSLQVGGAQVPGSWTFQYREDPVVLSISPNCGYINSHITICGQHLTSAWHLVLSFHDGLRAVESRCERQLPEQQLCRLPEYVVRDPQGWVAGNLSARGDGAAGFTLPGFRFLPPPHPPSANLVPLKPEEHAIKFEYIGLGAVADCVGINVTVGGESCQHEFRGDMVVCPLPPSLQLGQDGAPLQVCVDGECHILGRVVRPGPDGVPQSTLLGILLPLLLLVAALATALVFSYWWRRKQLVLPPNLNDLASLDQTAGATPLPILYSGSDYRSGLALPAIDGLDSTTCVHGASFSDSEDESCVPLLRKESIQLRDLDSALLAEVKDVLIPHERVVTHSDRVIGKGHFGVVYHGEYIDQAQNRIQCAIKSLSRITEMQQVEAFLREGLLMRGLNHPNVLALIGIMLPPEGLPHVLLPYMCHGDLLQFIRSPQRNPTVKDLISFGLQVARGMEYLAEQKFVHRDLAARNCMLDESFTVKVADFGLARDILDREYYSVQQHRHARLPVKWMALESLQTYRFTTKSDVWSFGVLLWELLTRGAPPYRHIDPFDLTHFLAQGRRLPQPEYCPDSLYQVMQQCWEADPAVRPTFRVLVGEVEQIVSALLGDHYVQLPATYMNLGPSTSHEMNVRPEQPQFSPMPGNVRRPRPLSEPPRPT

binding: binds
Substance: RONΔ155 (mutant recepteur d'origine nantais in which exons 5, 6, and 11 are deleted) (from UniProt Q04912 25-1400) (receptor)
